# Among all 400,000 compounds or so, about 13,000 (3.2%) were called active. The inconclusive results got no clear call from the source; some entries with a clear call stand among them for comparison. Calls come from the whole dose curve; as a rule, active = well fitted cell-killing curve with a large enough effect; inconclusive = small, poorly fitted or top-dose-only effect, or effect the other way; inactive = flat fitted curve, though single readings scatter. Potencies beside an inconclusive call are fits to weak or partial responses and may not hold up.
# Assay: qHTS assay for MDR1-selective chemotherapeutics: Primary screen using the drug-selected MDR subline cells KB-V1; note: nearly all actives have a fitted effect of over 60% in size
# Conditions: KB-V1 MDR cells viability, CellTiter-Glo, 72 h; series mostly up to 46.1 µM
# Outline: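 Cytotoxicity via CellTiter-Glo luminescence after 72 h compound exposure at 37 degrees C. Cells: drug-selected KB-V1 line, DMEM phenol-red free plus 10% FBS. Compounds tested at multiple concentrations; normalized data fitted to concentration-effect curves.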
# Potency is the fitted concentration of half-maximal effect.
row,SMILES,Potency
1,O=C(c1cnn(-c2ccc(F)cc2)c1-n1cccc1)N1CCN(c2cccc(Cl)c2)CC1,inactive
2,O=C(COc1ccccc1Cl)Nc1ccccc1C(=O)NC1CC1,"inconclusive: 18.4 µM [cytotoxic, partial curve, poor fit]"
3,COc1ccc(CN2CCc3nc(N4CCN(c5ccc(F)cc5)CC4)ncc3C2)c(OC)c1OC,"inconclusive: 29.1 µM [cytotoxic, single point]"
4,COC(=O)c1cc(OC)c(OC)cc1NC(=O)Cc1ccccc1[N+](=O)[O-],active: 2.31 µM
5,CCc1ccc(CNC(=O)C2CCN(S(=O)(=O)N3CCC4(CC3)OCCO4)CC2)cc1,inactive
6,CCOCCCNC(=O)C1CCN(c2nc3ccc(Cl)cc3[nH]2)CC1,"inconclusive: 1.46 µM [rising, partial curve, poor fit]"
7,O=S(=O)(NC1CCCC1)c1ccc(S(=O)(=O)N(Cc2cccs2)CC2CCCO2)cc1 (stereo not drawn),"inconclusive: 18.4 µM [cytotoxic, partial curve]"
8,Cc1ccc(S(=O)(=O)N2CCCOC2CNC(=O)C(=O)NCc2cccs2)cc1 (stereo not drawn),active: 9.2 µM
9,O=P(OC1CCCCC1)(OC1CCCCC1)C(O)c1ccccc1 (stereo not drawn),active: 9.2 µM
10,CNC(=O)c1cccc(-n2c(C)nc3cccnc32)c1C,inactive
11,O=c1c2cccnc2n(Cc2ccc(Cl)cc2)c(=O)n1Cc1ccc(F)cc1,"inconclusive: 29.1 µM [cytotoxic, single point]"
12,N#C/C(=C\c1ccc(F)cc1)c1n[nH]c(Cn2cncn2)n1,"inconclusive: 20.6 µM [rising, partial curve, poor fit]"
13,Cc1ccc(NC(=O)NC2CCCCC2)cc1Cl,"inconclusive: 29.1 µM [cytotoxic, single point]"
14,Cc1cccc(OCCCCc2c(C)n[nH]c2C)c1C,active: 16.4 µM
15,CCCS(=O)(=O)c1nc(S(=O)(=O)c2ccc(C)cc2)c(NCCCN2CCCC2=O)s1,inactive
16,COc1nc(NCCc2ccc(OC)c(OC)c2)nc(NC(C)(C)CO)n1,"inconclusive: 18.4 µM [cytotoxic, single point]"
17,CCOc1cc(N2CCOCC2)c(OCC)cc1NC(=O)c1ccccc1C,"inconclusive: 11.6 µM [cytotoxic, partial curve]"
18,O=c1[nH]c2ccc(Cl)cc2c(-c2ccccc2)c1N1CCN(c2ccccn2)CC1,active: 13 µM
19,N=C1SCC(=O)N1/N=C/c1ccccc1,active: 6.51 µM
20,CC(=O)c1cc(F)c(N2CCN(C(=O)COc3ccc(F)cc3)CC2)cc1C,"inconclusive: 20.6 µM [cytotoxic, single point]"
21,COCCNc1nc(Nc2ccc(Cl)cc2F)c2sccc2n1,"inconclusive: 18.4 µM [cytotoxic, single point]"
22,Cc1ccc(NC(=O)CSc2nc(=O)n(CCCN3CCOCC3)c3c2CCCC3)cc1,inactive
23,CC(=O)Nc1ccc(S(=O)(=O)N2CCN(c3ccc(C)c(C)c3)CC2)cc1,inactive
24,O=C(NCCCc1nc2ccccc2n1CCCOc1ccccc1)C1CCCCC1,"inconclusive: 18.4 µM [cytotoxic, single point]"
25,CCc1nc(N)c(C#N)c(-c2ccco2)c1C,"inconclusive: 18.4 µM [cytotoxic, single point]"

# Exported with tabs: part of the list above.
row	SMILES	Potency
4	COC(=O)c1cc(OC)c(OC)cc1NC(=O)Cc1ccccc1[N+](=O)[O-]	active: 2.31 µM
13	Cc1ccc(NC(=O)NC2CCCCC2)cc1Cl	inconclusive: 29.1 µM [cytotoxic, single point]

# (list continues)

row,SMILES,Potency
1,Cc1ccc(NC(=O)COC(=O)c2ccc3ncsc3c2)c(C)c1,"inconclusive: 18.4 µM [rising, partial curve, poor fit]"
2,Cc1cc(C(=O)CCl)c(C)n1-c1cccc([N+](=O)[O-])c1,active: 23.1 µM
3,CC(C)(C)c1ccc(CC(=O)N2CCC2(C)C(=O)NCc2ccc(Cl)cc2)cc1 (stereo not drawn),active: 20.6 µM
4,O=c1cc(-c2ccc(O)cc2)oc2ccc3ccccc3c12,"inconclusive: 29.1 µM [cytotoxic, single point]"
5,COc1ccc(OC)c(CN2CCN(C(=O)c3cc4ccccc4cc3O)CC2)c1,"inconclusive: 16.4 µM [cytotoxic, partial curve]"
6,O=C(C[C@H]1C/C=C\C[C@H](Cc2ccc(F)cc2)C(=O)OCCNC1=O)NCCO,"inconclusive: 7.31 µM [rising, partial curve, poor fit]"
7,CCn1ccc(C(=O)Nc2c(C)nn(Cc3c(F)c(F)c(F)c(F)c3F)c2C)n1,"inconclusive: 20.6 µM [cytotoxic, partial curve]"
8,Cc1ccc(NC(=O)CSc2ncnc3ccccc23)cc1S(=O)(=O)N1CCOCC1,inactive
9,O=C(Nc1nnc(-c2ccc3c(c2)OCCO3)o1)C1CCCCC1,"inconclusive: 20.6 µM [cytotoxic, single point]"
10,CCCCn1nnnc1C(c1ccccc1)N1CCCN(Cc2ccc(F)cc2)CC1 (stereo not drawn),active: 8.2 µM
11,O=C(NCC(c1ccco1)N1CCc2ccccc2C1)C(=O)Nc1cc(F)ccc1F (stereo not drawn),"inconclusive: 9.2 µM [cytotoxic, partial curve]"
12,COc1ccc(CN(CC2CCCO2)S(=O)(=O)c2ccc(-n3cnnn3)c(OC)c2)cc1 (stereo not drawn),"inconclusive: 9.2 µM [cytotoxic, partial curve, poor fit]"
13,O=C(C(Sc1ccccc1)c1ccc(Br)cc1)N1CCOCC1 (stereo not drawn),"inconclusive: 29.1 µM [cytotoxic, partial curve, poor fit]"
14,CCOc1ccc(N(CC(=O)Nc2ccc(OC)cc2)S(C)(=O)=O)cc1,"inconclusive: 16.4 µM [cytotoxic, partial curve]"
15,COc1ccc(NC(=O)CSCc2ccc(C)cc2)cc1,inactive
16,COc1ccc(NC(=O)[C@H](COCc2ccccc2)NC(=O)OC(C)(C)C)cc1,active: 5.17 µM
17,O=C(CSc1nccn1-c1ccccc1)c1ccc(Br)cc1,"inconclusive: 16.4 µM [cytotoxic, single point]"
18,CCOC(=O)[C@]12CCCC=C1N(Cc1cccc3ccccc13)C(=O)[C@H](CC(=O)NCc1ccc(C)o1)C2,"inconclusive: 29.1 µM [cytotoxic, single point]"
19,COC(=O)c1cn(-c2ccccc2)nc1-c1ccncc1,inactive
20,CC(C)CNC(=O)c1cc([N+](=O)[O-])ccc1N1CCCCC1,inactive
21,CNc1cncc(-c2cccc(C(=O)NCCN(C)C)c2)n1,inactive
22,CCCCNC(=O)C[C@@H]1C[C@@]2(C(=O)OCC)CCCC=C2N(CCC2=CCCCC2)C1=O,"inconclusive: 6.51 µM [cytotoxic, partial curve]"
23,COc1ccc(CCNC(=O)c2ccc(CN3CCC(Cc4ccccc4)CC3)cc2)cc1,active: 9.2 µM
24,COc1ccc(NC(=O)Cn2cc(S(=O)(=O)c3ccccc3)c(=O)c3cc(C)ccc32)cc1Cl,"inconclusive: 5.17 µM [rising, partial curve, poor fit]"
25,Cc1ccc(S(=O)(=O)N2CCC(C(=O)Nc3ccccc3N3CCCC3)CC2)cc1,active: 5.8 µM

# Quoted at random: three records from the list, in no set order.
row,SMILES,Potency
17,O=C(CSc1nccn1-c1ccccc1)c1ccc(Br)cc1,"inconclusive: 16.4 µM [cytotoxic, single point]"
25,Cc1ccc(S(=O)(=O)N2CCC(C(=O)Nc3ccccc3N3CCCC3)CC2)cc1,active: 5.8 µM
4,O=c1cc(-c2ccc(O)cc2)oc2ccc3ccccc3c12,"inconclusive: 29.1 µM [cytotoxic, single point]"

# The list continues:

row,SMILES,Potency
1,C=CCNC(=S)NNC(=O)COc1ccc(Cl)cc1Cl,"inconclusive: 20.6 µM [cytotoxic, single point]"
2,CC1CN(C(=O)/C=C/c2ccc(SC(F)F)cc2)CC(C)O1 (stereo not drawn),inactive
3,CCC(=O)N1CCc2cc(Br)cc(S(=O)(=O)N3CCC(C(=O)Nc4cccc(C)c4)CC3)c21,inactive
4,COc1ccc2[nH]c(=O)c(C(c3nnnn3C3CCCC3)N3CCN(Cc4ccc5c(c4)OCO5)CC3)cc2c1 (stereo not drawn),"inconclusive: 0.366 µM [cytotoxic, full curve, poor fit]"
5,CCc1ccc(NC(=O)CSC2=Nc3ccccc3C3=NC(CC(=O)NCc4cccs4)C(=O)N23)cc1 (stereo not drawn),"inconclusive: 18.4 µM [cytotoxic, single point]"
6,C=CCn1c(-c2ccncc2)n[nH]c1=S,inactive
7,CCn1c2ccccc2c2cc(NC(=O)C(=O)N3CCOCC3)ccc21,inactive
8,CCCCc1c(O)c2ccccc2n(CCCC)c1=O,inactive
9,O=C(CN1CCN(Cc2ccccc2)CC1)NCc1ccc(Cl)cc1,"inconclusive: 20.6 µM [cytotoxic, single point]"
10,COc1cccc(-n2nnc3c(=O)n(CC(=O)N4CCC(C)CC4)cnc32)c1,inactive
11,Cc1nc(Nc2ccc3c(c2)OCCO3)c2oc3ccccc3c2n1,"inconclusive: 20.6 µM [cytotoxic, single point]"
12,COc1ccc(CCNC(=O)COc2ccc3c(C)cc(=O)oc3c2)cc1OC,inactive
13,CCOc1ccc(N(CC(=O)NCc2ccccc2)C(=O)Cn2nnc(-c3ccc(C)o3)n2)cc1,inactive
14,CCOC(=O)CN=C/C(C(C)=O)=C(/C)O,inactive
15,Cc1ccc(C(=O)Nc2cccc(C(O)c3ccccc3)c2)cc1 (stereo not drawn),inactive
16,CN(C)c1ccc(C(=O)Nc2nnc(C3=COCCO3)o2)cc1,"inconclusive: 16.4 µM [cytotoxic, single point]"
17,COc1ccc(-c2ccnc(SCC(=O)Nc3ccccn3)n2)cc1,"inconclusive: 16.4 µM [cytotoxic, single point]"
18,CN1CCC(N(C)S(=O)(=O)c2ccc(NC(=O)COc3cccc(C(F)(F)F)c3)cc2)CC1,inactive
19,COc1cc(SC)ccc1C(=O)OCC(=O)N1CCCC1,"inconclusive: 20.6 µM [cytotoxic, partial curve, poor fit]"
20,CCOc1ccc(C(CC(=O)O)NC(=O)Cc2ccc(Cl)cc2)cc1 (stereo not drawn),"inconclusive: 13 µM [rising, partial curve]"
21,O=S(=O)(Nc1ccc(-n2cccc2)cc1)c1ccccc1,inactive
22,CCCN1CCN(C(=O)c2noc3c2COc2ccc(C)cc2-3)CC1,"inconclusive: 2.91 µM [rising, partial curve, poor fit]"
23,CNC(=O)CS(=O)CC(=O)Nc1cc(OCCOC)c(Cl)cc1Cl (stereo not drawn),inactive

# Source: PubChem BioAssay AID1347076 (National Center for Advancing Translational Sciences (NCATS), 2019)
